Reference: PubChem BioAssay AID743121 (NCATS, 2013)
The whole screen tested about 26,000 reagents; this is a part drawn at random. 167 of all reagents (0.63%) count as active. 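Calls are per gene from RSA p-values that are not deposited; an individual active-marked siRNA can sensitise only weakly.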 Reagents against one gene are numbered here. Not all columns of the deposit are shown.

Assay: 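Knock-downs that sensitise breast cancer cells to camptothecin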 (primary screen)
System: MDA-MB-231 cells, a human breast cancer line
Knock-down reagent: single siRNA against human genes, 20 nM siRNA (0.8 pmol per well)
Timing: 120 h (drug added 48 h after transfection, read 72 h later)
Challenge: camptothecin 20 nM (about EC30) for 72 h; vehicle 0.1% DMSO in parallel plates
Measurement: 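CellTiter-Glo ATP signal, scaled to control siRNA as percent viability; sensitisation given as log2 of untreated divided by camptothecin-treated viability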
Direction: log2 vehicle/camptothecin viability: higher = stronger sensitisation to camptothecin
Call rule: 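Each gene scored by redundant siRNA activity (RSA) over its individual siRNA ratios; a gene is called active at p < 0.001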

Against BMPR2 #1 the deposit lists log2 vehicle/camptothecin viability -0.344; inactive.
Against BMPR2 #2, the values are log2 vehicle/camptothecin viability -0.402; inactive.
BMPR2 #3 scored log2 vehicle/camptothecin viability 0.0292; inactive.
After knock-down of BMPR2 #4, the screen gave log2 vehicle/camptothecin viability -0.59; inactive.
With knock-down of MAPK12 #1, the record shows log2 vehicle/camptothecin viability 0.785; inactive.
MAPK12 #2 scored log2 vehicle/camptothecin viability -0.481; inactive.
After knock-down of MAPK12 #3, the record shows log2 vehicle/camptothecin viability -0.198; inactive.
Knock-down of MAPK12 #4 gave: log2 vehicle/camptothecin viability 0.382; inactive.

Sorted by “log2 vehicle/camptothecin viability” (highest first): 2 of the entries above
BMPR2 #3: log2 vehicle/camptothecin viability = 0.0292; Call = inactive
BMPR2 #4: log2 vehicle/camptothecin viability = -0.59; Call = inactive

Further results:
Silencing of PAK2 #1 resulted in: log2 vehicle/camptothecin viability -0.336; inactive.
Against PAK2 #2, the values are log2 vehicle/camptothecin viability -0.116; inactive.
Knock-down of PAK2 #3 gave: log2 vehicle/camptothecin viability -0.176; inactive.
Silencing of PAK2 #4 resulted in: log2 vehicle/camptothecin viability -0.158; inactive.
MARK4 #1 gave log2 vehicle/camptothecin viability -0.558; inactive.
Against MARK4 #2, the values are log2 vehicle/camptothecin viability 0.236; inactive.
For MARK4 #3, the values are log2 vehicle/camptothecin viability -0.0142; inactive.
Against MARK4 #4, the values are log2 vehicle/camptothecin viability -0.582; inactive.
